Patent US20240158355A1, “BET SUBFAMILY INHIBITORS AND METHODS USING SAME” (Baylor College of Medicine, priority 2021, published 2024)
For at least one compound, name, drawing or mass did not settle the structure.

Assays:
BRD4-BD2 = BRD4-BD2 (Homo sapiens (Human), UniProt O60885); assay: AlphaScreen bromodomain proximity assay, BRD4-BD2; type: binding
His-BRDT-BD2 = His-BRDT-BD2 (Homo sapiens (Human), UniProt Q58F21); details: 0 = theoretically present in the library but not detected in the sequencing data

SMILES	affinity for BRDT-BD2 versus BRD4-BD2 (BRD4-BD2) [fold]	Count (observed molecule count in the DEC-Tec screen against BRDT-BD2) (His-BRDT-BD2)
CNC(=O)c1ccc(C(=O)Nc2cc(NC(=O)c3ccc4c(c3)c(-c3cnc(N)cc3C)nn4C)ccc2C)cc1 [compound 15]	> 6	
CNC(=O)c1ccc(C(=O)Nc2cc(NC(=O)c3ccc4c(c3)c(-c3ccc(OC)cc3)nn4C)ccc2C)cc1 [compound 11]		0
